System: cortical neurons in culture
Assay: In vitro neurotoxicity caused by hypoxia in cortical cells (LDH activity)
Type: cell-based, rat
Conditions: 3 hours hypoxia, LDH after 24 hours
Method: Cortical cells are extracted from Sprague-Dawley rat foetuses and cultured in MEM (minimum essential medium) containing 5% horse serum and 5% calf foetus serum. The cultures are maintained at 37° C. in an atmosphere of 93% air and 7% CO2. Just before hypoxia, the culture medium is replaced by 300 μl of saline solution buffered with HEPES (HCSS). The cells are incubated for 10 minutes under these conditions at ambient temperature. […] The culture media are then replaced by 300 μl of deoxygenated PIPES buffer at pH 7.4.
The cells are then incubated for 3 hours in a hypoxic atmosphere containing 95% N2 and 5% O2 at 37° C. The culture media are then replaced by 200 μl of MEM without serum and the cells are incubated again for 24 hours at 37° C. under standard conditions. After morphological examination of the cells, the culture supernatants are collected and the lactate dehydrogenase (LDH) activity therein is measured.

CN1c2ccccc2C(NCCCCCCC(=O)O)c2ccc(Cl)cc2S1(=O)=O (stereo not drawn) [tianeptine]
reduction of neurotoxicity caused by hypoxia (LDH activity) (1 μM): 98.8%
reduction of neurotoxicity caused by hypoxia (LDH activity) (10 μM): 91.7%
reduction of neurotoxicity caused by hypoxia (LDH activity) (100 μM): 91.4%

Reference: patent US6599896B1 (Les Laboratoires Servier, priority 1999, dated 2003)
